Drawing on PMC5469152, this text covers binding for nine molecules.

Results are given in words; binding and its absence hold for the method and conditions named. Binding seen in cells or lysates may run through a third protein. Some binding calls cover weakened binding; strength is not graded here. Where a sequence is shown, tags or fusion partners need not be part of it.

The target of this assay is T1, nYFP-XLG1 (BiFC bait) (Arabidopsis thaliana) (UniProt O80462).
T1 sequence: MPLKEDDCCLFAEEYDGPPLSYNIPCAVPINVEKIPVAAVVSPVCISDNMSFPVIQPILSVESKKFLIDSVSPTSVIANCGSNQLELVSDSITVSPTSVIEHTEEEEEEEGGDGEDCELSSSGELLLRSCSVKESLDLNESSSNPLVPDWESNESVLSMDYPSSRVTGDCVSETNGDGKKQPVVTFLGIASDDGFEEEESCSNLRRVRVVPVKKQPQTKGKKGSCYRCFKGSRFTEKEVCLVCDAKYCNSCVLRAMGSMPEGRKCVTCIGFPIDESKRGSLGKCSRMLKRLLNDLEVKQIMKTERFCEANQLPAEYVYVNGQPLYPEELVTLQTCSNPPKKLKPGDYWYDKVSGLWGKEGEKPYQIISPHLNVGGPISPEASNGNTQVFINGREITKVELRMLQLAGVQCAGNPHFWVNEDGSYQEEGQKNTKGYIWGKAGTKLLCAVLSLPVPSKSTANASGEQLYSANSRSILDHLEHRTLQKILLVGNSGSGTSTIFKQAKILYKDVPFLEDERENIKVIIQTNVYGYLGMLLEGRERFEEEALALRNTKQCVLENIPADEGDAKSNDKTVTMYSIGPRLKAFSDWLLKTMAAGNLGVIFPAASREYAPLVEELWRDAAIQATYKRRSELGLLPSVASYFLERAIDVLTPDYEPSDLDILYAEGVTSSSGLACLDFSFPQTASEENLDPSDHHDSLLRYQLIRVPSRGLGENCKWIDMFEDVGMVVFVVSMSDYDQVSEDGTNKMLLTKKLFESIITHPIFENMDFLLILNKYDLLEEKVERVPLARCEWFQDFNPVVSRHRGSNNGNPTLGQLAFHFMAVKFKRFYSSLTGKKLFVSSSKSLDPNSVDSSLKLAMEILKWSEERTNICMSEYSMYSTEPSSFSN
The experiment in a line: split reporter; BiFC: nYFP-XLG1 or nYFP-XLG3 with cYFP-tagged prey in leaf cells, confocal imaging of YFP; mitochondrial RFP marker or NLS-CFP as control of transformation.

B1: CASP-like protein, cYFP fusion (BiFC prey) (protein, UniProt Q8LE26 1-188)
chain: MTNPDNMKPVEATDVESAAEKTSEPTPASGTSTITQRWKREDLIKKASPITRGICLLFSLIAFLIMVSNKHGYGRNFNDYEEYRYVLAISIISTLYTAWQTFAHFSKREIFDRRTSILVDFSGDQIVAYLLISAASSAIPLTNIFREGQDNIFTDSAASAISMAIFAFIALALSALFSGYKLSTHSFI
For B1, the binding entry is “binds”.

B2: DCD (Development and Cell Death) domain protein At5g42050, cYFP fusion (BiFC prey) (protein, UniProt Q8RXN8 1-349)
chain: MEYNNNNQQSFWQFSDQLRVQTPNLANLSLNDSIWSTNSVFKERRNLDIAATTDKNNNQIDYYQKKTTSDNINSNWNWKSSGSNNDMGLGFGPVGSKSTVDLNPIDKFNSPFNDTWKFNSVNVNVNGYSPSSAVNGDFNKGVYTSMKKYGYNVNLKNNNKNKGIDEDHQIQKGGKKNRKNQQNNNNQRNEDDKNNGLDKRFKTLPPAEALPRNETIGGYIFVCNNDTMEENLKRQLFGLPPRYRDSVRAITPGLPLFLYNYSTHQLHGIYEAASFGGTNIELNAFEDKKCPGESRFPAQVRAITRKVCLPLEEDSFRPILHHYDGPKFRLELSVPEVLSLLDIFADQNP
Consider B2, for which the binding entry is given as “binds”.

B3: Senescence-associated protein SAG21, cYFP fusion (BiFC prey) (protein, UniProt Q93WF6 47-97)
chain: ASAVMKKKGVEESTQKISWVPDPKTGYYRPETGSNEIDAAELRAALLNNKQ
B3: the binding entry was “binds”.

B4: ESCRT-related protein CHMP1A, cYFP fusion (BiFC prey) (protein, UniProt Q8LE58 1-203)
chain: MGNTDKLMNQIFELKFTSKSLQRQARKCEKEERSEKLKVKKAIEKGNMDGARIYAENAIRKRSEQMNYLRLSSRLDAVVARLDTQAKMATITKSMTNIVKSLESSLTTGNLQKMSETMDSFEKQFVNMEVQAEFMDNAMAGSTSLSTPEGEVNSLMQQVADDYGLEVSVGLPQPAGHAIPTKTEEKVEEDDLTRRLAELKARG
On to B4, for which the binding result is on record as “binds”.

B5: Putative protein kinase At1g71410, cYFP fusion (BiFC prey) (protein, UniProt Q9C9H8 1-909)
chain: MSINMKTFTQALARTAAVIEKTVHTTVQEVTGPKALQDYELLDQIGSAGPGLAWKLYAAKARDSTRPQQYPTVCVWMLDKRALSEARVRANLSKAAEDAFLDLIRADAGKLVRLRHPGVVHVVQALDENKNAMALVTEPLFASVANALGNVENVGNVPKDLKSMEMSLLEVKHGLLQISETLNFLHNNANLIHRAISPENVLITSAGSWKLAGFGFAISAAQAGNLDNMQSFHYSEYDVEDSILPVQPSLNYTAPELMRSKSPSAGASSDIFSFGCLAYHLVARKPLFDCNNNVKMYMNTLNYITNESFSSIPSELVSDLQRMLSTNESFRPTALDFTGSNFFRSDARLRALRFLDHLLERDNMQKSEFLKALSDMWKDFDSRVLRYKVLPPLCAELRNLVLQPIILPMVLTIAQSQDRTDFELITLPALVPVLSTASGDTLLLLVKHADLITNKTDSEHLVSHVLPLLLRAYNDNDVRIQEEVLKRSTSVAKQLDGQVVRQAILPRVHGLALKTTVAAVRVNALLCLAELVQTLDKPAAIEILETIQRCTAVDRSAPTLMCTLAVANAILKQYGVEFTAEHVLTLMMPLLTAQQLNVQQFAKYMLFVKDILRKIEEKRGVTVNDSGVPEVKPHSAANGLQFQSSTQIPEKVASAAKSSPAWDEDWGSPSKDSAVGNPASSRHNTNDQFNKSTDQSQPSIMSTLPNKTTAPTTCPAVDIEWPPRQSSSLTAPATDNQTQLNTGTSFASGFDELDPFANWPPRPNNGASVASTGLKNGAASNFSNNLPGGTHFQTANNDNWAFSSASLSSLKPPQQGNQGISANNQDPLNSFGVPKQSQGMPSFTSGSYNNQKPADISSIFGSSKTEPSAMKLAPPPSIAMGRGRGRGRGGTGTSTSKPSGSQPSLLDLL
As to B5, the binding entry is “binds”.

B6: Aldehyde dehydrogenase 3H1, cYFP fusion (BiFC prey) (protein, UniProt Q70DU8 1-484)
chain: MAAKKVFGSAEASNLVTELRRSFDDGVTRGYEWRVTQLKKLMIICDNHEPEIVAALRDDLGKPELESSVYEVSLLRNSIKLALKQLKNWMAPEKAKTSLTTFPASAEIVSEPLGVVLVISAWNYPFLLSIDPVIGAISAGNAVVLKPSELAPASSALLTKLLEQYLDPSAVRVVEGAVTETSALLEQKWDKIFYTGSSKIGRVIMAAAAKHLTPVVLELGGKSPVVVDSDTDLKVTVRRIIVGKWGCNNGQACVSPDYILTTKEYAPKLIDAMKLELEKFYGKNPIESKDMSRIVNSNHFDRLSKLLDEKEVSDKIVYGGEKDRENLKIAPTILLDVPLDSLIMSEEIFGPLLPILTLNNLEESFDVIRSRPKPLAAYLFTHNKKLKERFAATVSAGGIVVNDIAVHLALHTLPFGGVGESGMGAYHGKFSFDAFSHKKAVLYRSLFGDSAVRYPPYSRGKLRLLKALVDSNIFDLFKVLLGLA
With B6, the binding entry is given as “binds”.

B7: Magnesium transporter MRS2-3, cYFP fusion (BiFC prey) (protein, UniProt Q9LJN2 1-484)
chain: MRGARPDEFNFSTNPSTPNTGQPTPTYPAGVGGGGGGRKKGVGVRTWLVLNSSGQSEPKEEGKHSIMRRTGLPARDLRILDPLLSYPSTVLGRERAIVINLEHIKAIITAQEVLLLNSKDPSVSPFIDELQRRILCHHHATKPQEEQNSGGEPHTRVDPAQGEAGTEQSSGDQGSEAKKDAKQSLENQDGSKVLPFEFVALEACLEAASSSLEHEALRLELEAHPALDKLTSKISTLNLERVRQIKSRLVAITGRVQKVRDELEHLLDDDEDMAEMYLTEKLAQKLEDSSNSSMNESDTFEVDLPQGDEDDRLPPEFASEANRDGRYLQANDAHELLMSTQSALSRNSRGTHTSSTRSAMTNKLDVEELEMLLEAYFVQIDGILNKLSTLREYVDDTEDYINIMLDDKQNHLLQMGVMLTTATLVMSAFIAVAGVFGMNITIELFTDNKHGPSRFIWTVIGGSIGSICLYVGAIGWCKYKRLLE
For B7, the binding entry was “binds”.

B8: Salt-inducible zinc finger 1, cYFP fusion (BiFC prey) (protein, UniProt Q93ZS9 1-580)
chain: MCSGPKSNLCSSRTLTEIESRQKEEETMLLLEFAACDDLDSFKREVEEKGLDLDESGLWYCRRVGSKKMGLEERTPLMVAAMYGSIKVLTFIVSTGKSDVNRACGEERVTPLHCAVAGCSVNMIEVINVLLDASALVNSVDANGNQPLDVFVRVSRFVASPRRKAVELLLRGGGVGGLIDEAVEEEIKIVSKYPADASLPDINEGVYGSDEFRMYSFKVKPCSRAYSHDWTECAFVHPGENARRRDPRKYPYTCVPCPEFRKGSCPKGDSCEYAHGVFESWLHPAQYKTRLCKDETGCARKVCFFAHKREEMRPVNASTGSAVAQSPFSSLEMMPGLSPLAYSSGVSTPPVSPMANGVPSSPRNGGSWQNRVNTLTPPALQLNGGSRLKSTLSARDIDMEMEMELRLRGFGNNVEETFGSYVSSPSRNSQMGQNMNQHYPSSPVRQPPSQHGFESSAAAAVAVMKARSTAFAKRSLSFKPATQAAPQSNLSDWGSPNGKLEWGMKGEELNKMRRSVSFGIHGNNNNNAARDYRDEPDVSWVNSLVKDSTVVSERSFGMNERVRIMSWAEQMYREKEQTVV
On to B8, for which the binding entry is on record as “binds”.

B9: Zinc finger CCCH domain-containing protein 29, cYFP fusion (BiFC prey) (protein, UniProt Q9XEE6 1-597)
chain: MCGAKSNLCSSKTLTEVEFMRQKSEDGASATCLLEFAACDDLSSFKREIEENPSVEIDESGFWYCRRVGSKKMGFEERTPLMVAAMYGSMEVLNYIIATGRSDVNRVCSDEKVTALHCAVSGCSVSIVEIIKILLDASASPNCVDANGNKPVDLLAKDSRFVPNQSRKAVEVLLTGIHGSVMEEEEEELKSVVTKYPADASLPDINEGVYGTDDFRMFSFKVKPCSRAYSHDWTECPFVHPGENARRRDPRKYPYTCVPCPEFRKGSCPKGDSCEYAHGVFESWLHPAQYRTRLCKDETGCARRVCFFAHRRDELRPVNASTGSAMVSPRSSNQSPEMSVMSPLTLGSSPMNSPMANGVPLSPRNGGLWQNRVNSLTPPPLQLNGSRLKSTLSARDMDMEMELRFRGLDNRRLGDLKPSNLEETFGSYDSASVMQLQSPSRHSQMNHYPSSPVRQPPPHGFESSAAMAAAVMNARSSAFAKRSLSFKPAPVASNVSDWGSPNGKLEWGMQRDELNKLRRSASFGIHGNNNNSVSRPARDYSDEPDVSWVNSLVKENAPERVNERVGNTVNGAASRDKFKLPSWAEQMYIDHEQQIVA
Consider B9, for which the binding entry is “binds”.
